# These are yes or no findings as the source states them, for the method shown. In cells and extracts the contact can be indirect. Some entries that bind do so weakly or less than the wild type.
# Chains of the proteins cited; added tags and fusions are not shown. Lines headed by an entry give the natural chain unless they say otherwise; changes in a name come on top. A line that says so, or that is headed by a name, gives the form on record, which may keep a tag or linker.
# recombinant 8×His-tagged full-length (FL, aa 1-383) wild-type human Tau (0N4R isoform) (P10636, form named): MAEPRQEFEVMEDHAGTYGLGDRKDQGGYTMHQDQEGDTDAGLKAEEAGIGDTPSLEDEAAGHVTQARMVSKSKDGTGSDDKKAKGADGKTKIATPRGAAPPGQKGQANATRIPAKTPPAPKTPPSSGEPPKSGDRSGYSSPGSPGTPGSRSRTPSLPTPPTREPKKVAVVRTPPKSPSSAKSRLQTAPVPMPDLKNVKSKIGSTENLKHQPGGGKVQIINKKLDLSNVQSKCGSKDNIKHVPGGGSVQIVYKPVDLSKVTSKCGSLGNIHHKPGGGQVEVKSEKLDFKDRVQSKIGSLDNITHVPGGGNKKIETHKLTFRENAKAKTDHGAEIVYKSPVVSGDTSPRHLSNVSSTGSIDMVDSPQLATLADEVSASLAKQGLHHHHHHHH
# Target: T1, Synaptogyrin-3 (mouse) (mouse) (UniProt Q8R191)
# T1 sequence (looked up): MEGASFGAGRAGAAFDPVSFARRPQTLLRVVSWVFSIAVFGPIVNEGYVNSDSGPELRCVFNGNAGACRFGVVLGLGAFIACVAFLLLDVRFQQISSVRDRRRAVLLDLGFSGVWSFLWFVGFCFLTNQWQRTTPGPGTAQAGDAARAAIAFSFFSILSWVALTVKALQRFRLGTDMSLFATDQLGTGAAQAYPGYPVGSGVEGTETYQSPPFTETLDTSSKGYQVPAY
# Experiment: co-IP of mouse SV lysate with recombinant Tau as bait, LC-MS/MS
substance,measurement,value
"recombinant 8×His-tagged full-length (FL, aa 1-383) wild-type human Tau (0N4R isoform) (from UniProt P10636 1-383)",binding,binds

# Source: US20220403021A1
